# According to paper PMC12509757:
# Sequences of proteins named here, by UniProt entry; tags and fusion partners are left off. Residues count along the entry.
# UniProt P02769, residues 25-607: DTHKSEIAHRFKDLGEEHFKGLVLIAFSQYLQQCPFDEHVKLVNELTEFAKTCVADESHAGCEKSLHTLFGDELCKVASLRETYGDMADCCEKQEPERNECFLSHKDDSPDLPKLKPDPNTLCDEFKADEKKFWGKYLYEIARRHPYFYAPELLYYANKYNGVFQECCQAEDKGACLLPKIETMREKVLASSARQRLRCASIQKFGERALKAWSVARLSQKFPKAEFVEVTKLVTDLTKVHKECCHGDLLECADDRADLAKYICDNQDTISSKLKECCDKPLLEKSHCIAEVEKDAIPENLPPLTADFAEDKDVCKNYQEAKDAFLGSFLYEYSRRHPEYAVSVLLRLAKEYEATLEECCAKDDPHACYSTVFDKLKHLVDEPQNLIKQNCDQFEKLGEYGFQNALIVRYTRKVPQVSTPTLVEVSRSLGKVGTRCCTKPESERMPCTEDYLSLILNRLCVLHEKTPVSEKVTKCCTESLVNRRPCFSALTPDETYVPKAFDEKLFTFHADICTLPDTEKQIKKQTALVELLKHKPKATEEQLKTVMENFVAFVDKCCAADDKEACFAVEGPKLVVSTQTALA
# These are yes or no findings as the source states them, for the method shown. Where a sequence is shown, tags or fusion partners need not be part of it.
# B1: His GST BAR-PH (aa 1-388) of ARHGAP10, WT (domain or fragment, UniProt A1A4S6 1-388)
# chain: MGLQPLEFSDCYLDSPWFRERIRAHEAELERTNKFIKELIKDGKNLIAATKSLSVAQRKFAHSLRDFKFEFIGDAVTDDERCIDASLREFSNFLKNLEEQREIMALSVTETLIKPLEKFRKEQLGAVKEEKKKFDKETEKNYSLIDKHLNLSAKKKDSHLQEADIQVEQNRQHFYELSLEYVCKLQEIQERKKFEFVEPMLSFFQGMFTFYHQGHELAKDFNHYKMELQINIQNTRNRFEGTRSEVEELMNKIRQNPKDHKRASQFTAEGYLYVQEKRPAPFGSSWVKHYCMYRKAAKKFNMIPFEHRSGGKLGDGEVFFLKECTKRHTDSIDRRFCFDIEAADRPGVSLTMQAFSEEERKQWLEALGGKEALSHSFNTAIIPRPEGN
# Target: BSA (bovine) (UniProt P02769)
# Assay: condition: 1 μM or 2 μM (methods) recombinant protein; co-sedimentation; in vitro; recombinant His GST protein (1 μM in the legends, 2 μM in the methods) with increasing concentrations of microtubules from pig brain tubulin (or BSA instead) in 1X BRB80, 1 mM DTT, 20 μM paclitaxel, 5 min at room temperature; 100,000g, 15 min, 30 °C through 40% glycerol; immunoblot of supernatant and pellet; apparent Kd, one site-specific binding fit; both purified
binder,measurement,value
B1,binding,no binding
